Data taken from paper PMC10669178.
Numbering of substitutions follows the chain as printed. Names and notes keep the numbering of the source. Results are given in words; binding and its absence hold for the method and conditions named. In cells and extracts the contact can be indirect. Some entries that bind do so weakly or less than the wild type. Where a sequence is shown, tags or fusion partners need not be part of it. Values belong to the binder of their own block, whether it stands above or below them.

Tests used:
[1] = biological target: T1, His-tagged bZP3 (32–178) (bovine) (UniProt P48830); experiment: pull-down; His-tagged bZP3 fragment and FLAG-tagged bZP4 fragment co-expressed in Sf9 cells (mixture of recombinant viruses, 48 h, 27 °C); complex recovered from the culture supernatant on TALON metal affinity resin by the His-tag of the bZP3 fragment; SDS-PAGE, silver-stained
T1 sequence: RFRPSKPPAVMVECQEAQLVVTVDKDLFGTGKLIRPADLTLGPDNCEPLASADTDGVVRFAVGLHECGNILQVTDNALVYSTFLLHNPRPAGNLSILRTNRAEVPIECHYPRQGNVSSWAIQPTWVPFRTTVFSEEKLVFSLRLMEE

[2] = biological target: T2, His-tagged bZP3 (32–178) N146D (bovine) (UniProt P48830); experiment: as above
T2 sequence: T1 sequence with N115D

binding [1]: binds
binding [2]: binds
B1: FLAG-tagged bZP4 (136–464) (domain or fragment, UniProt Q9BH11 136-464)
chain: DVPNAGLCDSVPVWDRLPCAPSPITQGDCKQLGCCYNSEEVISCYYGNTVTSHCTQDGHFSIAVSRNVTSPPLLLNSVHLAFRNDSECKPVMATHTFVLFRFPFTTCGTTKQITGKQAVYENELVAARDVRTWSRGSITRDSTFRLQVSCSYSASSSALPVNVQVLTLPPPLPETQPGNLTLELKIAKDKRYRSYYTASDYPVVKLLRDPIYVEVSIHQRTDPSLELRLDQCWATPGADALLQPQWPLLVNGCPYTGDNYQTKLIPVWEASDLPFPSHYQRFSISTFSFVDSVAKRALKGPVYLHCSASVCQPAGTPSCVTLCPARRRR

binding [1]: binds
binding [2]: binds
B2: FLAG-tagged bZP4 (136–464) N314D (domain or fragment, UniProt Q9BH11 136-464)
chain: B1 chain with N179D
